Reference: the supplement of paper PMC7666118
Some of the results follow.

By UniProt entry, the sequences of proteins in these tests, tags left out. Where a name states a change or a piece, a line headed by the entry shows the natural chain unless it says otherwise.
UniProt P06493, whole entry, looked up: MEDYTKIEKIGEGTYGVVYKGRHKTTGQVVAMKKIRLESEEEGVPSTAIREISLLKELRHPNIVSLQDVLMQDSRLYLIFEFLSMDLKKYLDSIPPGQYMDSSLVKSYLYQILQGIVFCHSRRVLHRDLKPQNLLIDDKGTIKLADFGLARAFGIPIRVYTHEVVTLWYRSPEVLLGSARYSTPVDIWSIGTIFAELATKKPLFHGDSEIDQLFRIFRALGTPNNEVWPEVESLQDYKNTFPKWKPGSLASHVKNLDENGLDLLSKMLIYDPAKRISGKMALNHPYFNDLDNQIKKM
UniProt O75976: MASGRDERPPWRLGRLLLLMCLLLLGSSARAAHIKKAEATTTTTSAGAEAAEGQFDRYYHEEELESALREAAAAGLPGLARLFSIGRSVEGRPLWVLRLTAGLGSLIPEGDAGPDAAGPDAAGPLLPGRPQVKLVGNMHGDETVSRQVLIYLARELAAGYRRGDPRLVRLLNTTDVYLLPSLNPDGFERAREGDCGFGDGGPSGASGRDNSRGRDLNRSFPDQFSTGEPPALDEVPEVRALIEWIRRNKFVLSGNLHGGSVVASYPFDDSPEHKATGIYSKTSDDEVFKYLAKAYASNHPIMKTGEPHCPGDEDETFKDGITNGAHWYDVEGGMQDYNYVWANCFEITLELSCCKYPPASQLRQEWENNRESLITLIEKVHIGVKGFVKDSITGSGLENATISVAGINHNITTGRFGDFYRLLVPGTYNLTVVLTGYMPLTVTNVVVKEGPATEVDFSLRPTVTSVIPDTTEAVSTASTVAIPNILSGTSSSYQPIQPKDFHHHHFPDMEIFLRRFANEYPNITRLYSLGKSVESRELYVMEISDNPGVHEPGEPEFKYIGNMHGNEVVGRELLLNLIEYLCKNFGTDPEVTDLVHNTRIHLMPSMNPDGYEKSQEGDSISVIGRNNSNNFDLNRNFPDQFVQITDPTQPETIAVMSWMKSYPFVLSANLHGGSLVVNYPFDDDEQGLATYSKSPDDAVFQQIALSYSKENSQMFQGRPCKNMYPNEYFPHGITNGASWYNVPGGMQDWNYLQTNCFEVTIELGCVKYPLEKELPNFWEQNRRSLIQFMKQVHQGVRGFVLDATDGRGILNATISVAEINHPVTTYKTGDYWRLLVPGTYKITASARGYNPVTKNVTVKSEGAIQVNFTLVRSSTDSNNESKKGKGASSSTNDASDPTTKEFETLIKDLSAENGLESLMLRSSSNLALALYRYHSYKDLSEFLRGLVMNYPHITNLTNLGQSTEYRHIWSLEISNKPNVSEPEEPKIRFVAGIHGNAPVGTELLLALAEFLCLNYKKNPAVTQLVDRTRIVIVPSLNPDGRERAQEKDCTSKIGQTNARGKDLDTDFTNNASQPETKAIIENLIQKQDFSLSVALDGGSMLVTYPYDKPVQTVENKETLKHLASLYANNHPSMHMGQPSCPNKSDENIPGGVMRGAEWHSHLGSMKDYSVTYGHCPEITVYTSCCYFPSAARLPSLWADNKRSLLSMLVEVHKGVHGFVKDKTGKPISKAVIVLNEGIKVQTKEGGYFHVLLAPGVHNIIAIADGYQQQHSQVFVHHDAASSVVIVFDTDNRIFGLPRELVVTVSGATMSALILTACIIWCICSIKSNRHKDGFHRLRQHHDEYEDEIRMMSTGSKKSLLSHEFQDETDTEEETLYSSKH
UniProt Q99674: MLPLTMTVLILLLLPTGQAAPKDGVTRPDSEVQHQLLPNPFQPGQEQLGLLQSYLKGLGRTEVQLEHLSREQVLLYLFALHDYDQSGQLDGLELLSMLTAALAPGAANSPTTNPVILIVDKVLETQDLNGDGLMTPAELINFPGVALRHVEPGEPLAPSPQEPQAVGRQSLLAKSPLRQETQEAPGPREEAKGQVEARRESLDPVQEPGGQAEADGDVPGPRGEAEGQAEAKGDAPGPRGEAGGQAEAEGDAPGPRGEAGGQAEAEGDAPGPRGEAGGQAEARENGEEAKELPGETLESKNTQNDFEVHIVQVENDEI
UniProt Q9Y5P4: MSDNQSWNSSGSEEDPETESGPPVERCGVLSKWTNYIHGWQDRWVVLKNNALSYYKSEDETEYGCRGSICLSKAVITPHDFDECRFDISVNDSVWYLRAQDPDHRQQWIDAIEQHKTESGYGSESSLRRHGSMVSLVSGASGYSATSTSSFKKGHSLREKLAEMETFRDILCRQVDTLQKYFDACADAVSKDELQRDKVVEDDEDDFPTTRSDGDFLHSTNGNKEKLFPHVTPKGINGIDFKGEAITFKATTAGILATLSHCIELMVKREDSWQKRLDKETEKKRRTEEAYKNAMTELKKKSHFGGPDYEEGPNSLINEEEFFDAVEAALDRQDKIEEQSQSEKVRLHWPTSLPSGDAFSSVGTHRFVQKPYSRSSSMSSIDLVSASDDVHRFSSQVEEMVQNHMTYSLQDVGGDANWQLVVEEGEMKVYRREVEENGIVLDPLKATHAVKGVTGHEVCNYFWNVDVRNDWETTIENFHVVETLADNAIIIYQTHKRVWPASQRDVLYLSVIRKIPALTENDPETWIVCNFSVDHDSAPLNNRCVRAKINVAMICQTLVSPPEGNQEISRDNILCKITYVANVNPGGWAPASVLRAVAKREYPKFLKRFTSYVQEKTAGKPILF
UniProt O96005: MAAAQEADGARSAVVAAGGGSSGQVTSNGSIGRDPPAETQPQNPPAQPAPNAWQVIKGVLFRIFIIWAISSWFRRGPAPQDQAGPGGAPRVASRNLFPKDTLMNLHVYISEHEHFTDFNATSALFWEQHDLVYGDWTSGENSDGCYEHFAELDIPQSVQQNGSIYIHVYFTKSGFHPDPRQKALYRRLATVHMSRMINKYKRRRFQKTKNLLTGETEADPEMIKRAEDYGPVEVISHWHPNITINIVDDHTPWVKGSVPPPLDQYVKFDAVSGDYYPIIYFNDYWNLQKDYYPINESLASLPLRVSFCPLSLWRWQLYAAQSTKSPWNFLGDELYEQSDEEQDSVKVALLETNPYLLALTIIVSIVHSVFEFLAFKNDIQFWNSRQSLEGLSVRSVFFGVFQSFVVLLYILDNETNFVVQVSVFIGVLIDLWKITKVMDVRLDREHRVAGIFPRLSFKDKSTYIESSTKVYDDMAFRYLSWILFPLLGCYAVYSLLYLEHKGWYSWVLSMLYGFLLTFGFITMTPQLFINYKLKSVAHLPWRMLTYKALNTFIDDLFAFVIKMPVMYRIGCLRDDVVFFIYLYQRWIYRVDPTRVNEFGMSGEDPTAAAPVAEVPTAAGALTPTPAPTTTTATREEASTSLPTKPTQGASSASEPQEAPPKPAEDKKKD
UniProt Q96KP4: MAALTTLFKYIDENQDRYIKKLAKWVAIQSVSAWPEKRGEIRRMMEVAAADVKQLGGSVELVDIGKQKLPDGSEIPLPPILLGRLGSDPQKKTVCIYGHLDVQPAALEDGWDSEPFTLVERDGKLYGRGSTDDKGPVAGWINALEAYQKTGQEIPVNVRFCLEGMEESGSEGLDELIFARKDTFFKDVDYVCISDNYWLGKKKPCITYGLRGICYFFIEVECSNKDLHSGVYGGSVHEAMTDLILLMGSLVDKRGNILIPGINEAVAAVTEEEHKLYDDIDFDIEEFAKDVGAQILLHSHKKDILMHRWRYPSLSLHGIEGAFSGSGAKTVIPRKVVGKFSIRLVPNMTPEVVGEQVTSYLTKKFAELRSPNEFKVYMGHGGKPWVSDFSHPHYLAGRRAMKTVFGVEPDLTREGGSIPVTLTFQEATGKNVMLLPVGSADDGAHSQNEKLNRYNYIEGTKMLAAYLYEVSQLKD
UniProt A5YKK6, whole entry: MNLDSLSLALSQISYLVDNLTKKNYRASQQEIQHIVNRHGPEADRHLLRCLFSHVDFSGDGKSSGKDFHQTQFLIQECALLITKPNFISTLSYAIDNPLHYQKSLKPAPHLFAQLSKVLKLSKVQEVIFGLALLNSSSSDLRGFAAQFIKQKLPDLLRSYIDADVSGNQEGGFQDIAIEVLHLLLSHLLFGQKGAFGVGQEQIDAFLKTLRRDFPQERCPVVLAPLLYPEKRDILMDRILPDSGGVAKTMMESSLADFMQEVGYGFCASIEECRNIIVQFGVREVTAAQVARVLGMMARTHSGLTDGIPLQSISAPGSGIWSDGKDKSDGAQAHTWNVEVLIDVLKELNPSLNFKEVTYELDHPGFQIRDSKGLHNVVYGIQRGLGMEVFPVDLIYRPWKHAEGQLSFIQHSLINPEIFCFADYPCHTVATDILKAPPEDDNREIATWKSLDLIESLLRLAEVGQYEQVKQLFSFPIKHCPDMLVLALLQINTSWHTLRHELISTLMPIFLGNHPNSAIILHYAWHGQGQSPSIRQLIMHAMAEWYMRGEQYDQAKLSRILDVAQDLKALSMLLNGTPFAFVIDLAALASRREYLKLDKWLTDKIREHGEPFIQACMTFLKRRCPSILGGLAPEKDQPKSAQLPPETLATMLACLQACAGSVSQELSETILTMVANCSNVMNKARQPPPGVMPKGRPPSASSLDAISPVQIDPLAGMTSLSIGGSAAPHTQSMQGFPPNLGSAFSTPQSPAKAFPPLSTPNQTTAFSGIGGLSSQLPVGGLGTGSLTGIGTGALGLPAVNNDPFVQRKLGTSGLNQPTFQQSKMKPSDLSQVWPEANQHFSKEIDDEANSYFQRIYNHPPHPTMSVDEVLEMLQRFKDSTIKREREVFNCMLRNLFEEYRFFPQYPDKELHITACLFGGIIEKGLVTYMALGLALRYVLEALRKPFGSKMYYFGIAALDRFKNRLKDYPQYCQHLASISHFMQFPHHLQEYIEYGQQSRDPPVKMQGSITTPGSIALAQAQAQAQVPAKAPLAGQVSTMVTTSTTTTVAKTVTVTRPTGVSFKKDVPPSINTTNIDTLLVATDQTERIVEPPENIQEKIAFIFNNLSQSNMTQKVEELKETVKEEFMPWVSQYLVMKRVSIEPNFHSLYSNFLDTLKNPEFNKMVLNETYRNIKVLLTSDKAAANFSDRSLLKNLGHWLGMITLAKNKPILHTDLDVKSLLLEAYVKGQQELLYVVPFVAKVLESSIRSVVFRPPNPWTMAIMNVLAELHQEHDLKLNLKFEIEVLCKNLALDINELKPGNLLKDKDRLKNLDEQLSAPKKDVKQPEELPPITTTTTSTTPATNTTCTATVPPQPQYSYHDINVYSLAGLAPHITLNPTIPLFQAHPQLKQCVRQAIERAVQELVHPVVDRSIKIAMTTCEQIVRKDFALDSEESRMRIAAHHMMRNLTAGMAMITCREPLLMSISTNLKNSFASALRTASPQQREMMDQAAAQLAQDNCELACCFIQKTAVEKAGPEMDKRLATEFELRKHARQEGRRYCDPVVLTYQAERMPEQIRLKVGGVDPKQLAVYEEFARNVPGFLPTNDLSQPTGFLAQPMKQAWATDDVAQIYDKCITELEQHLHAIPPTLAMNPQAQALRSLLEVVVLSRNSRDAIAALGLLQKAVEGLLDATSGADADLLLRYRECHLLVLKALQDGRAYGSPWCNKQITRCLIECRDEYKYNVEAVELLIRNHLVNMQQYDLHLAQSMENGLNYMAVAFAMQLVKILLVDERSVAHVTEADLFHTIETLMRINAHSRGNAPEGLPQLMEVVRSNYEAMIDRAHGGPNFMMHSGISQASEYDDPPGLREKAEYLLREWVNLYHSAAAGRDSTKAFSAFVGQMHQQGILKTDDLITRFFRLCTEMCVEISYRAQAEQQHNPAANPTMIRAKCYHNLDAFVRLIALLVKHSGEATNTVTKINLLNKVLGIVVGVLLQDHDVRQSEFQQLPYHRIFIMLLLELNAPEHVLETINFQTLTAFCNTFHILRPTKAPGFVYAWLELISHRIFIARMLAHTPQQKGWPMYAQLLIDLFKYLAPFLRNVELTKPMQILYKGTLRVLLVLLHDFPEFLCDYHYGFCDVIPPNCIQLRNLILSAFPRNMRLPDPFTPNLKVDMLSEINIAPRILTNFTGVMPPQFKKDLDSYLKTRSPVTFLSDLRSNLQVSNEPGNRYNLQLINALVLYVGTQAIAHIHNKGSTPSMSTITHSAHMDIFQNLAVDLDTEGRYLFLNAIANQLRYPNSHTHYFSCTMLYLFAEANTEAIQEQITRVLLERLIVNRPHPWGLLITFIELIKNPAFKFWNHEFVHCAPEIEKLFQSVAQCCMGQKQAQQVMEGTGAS
UniProt Q99807: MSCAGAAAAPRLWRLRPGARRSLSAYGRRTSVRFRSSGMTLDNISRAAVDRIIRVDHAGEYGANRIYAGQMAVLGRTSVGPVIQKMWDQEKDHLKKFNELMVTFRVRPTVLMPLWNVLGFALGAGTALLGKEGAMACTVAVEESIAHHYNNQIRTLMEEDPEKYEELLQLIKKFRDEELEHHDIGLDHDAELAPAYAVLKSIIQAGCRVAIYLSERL
UniProt Q9P000, whole entry: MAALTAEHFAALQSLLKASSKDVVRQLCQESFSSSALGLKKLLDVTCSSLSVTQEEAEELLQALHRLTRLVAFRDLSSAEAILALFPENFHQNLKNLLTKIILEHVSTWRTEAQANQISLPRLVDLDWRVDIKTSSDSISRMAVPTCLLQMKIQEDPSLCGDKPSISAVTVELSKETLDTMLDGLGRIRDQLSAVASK

compound: COc1ccc(Cn2ccc3cc(C)c(C(=O)NO)cc32)cc1; assay: dose-dependent thermal stabilisation call (2D-TPP, DLPTP, 10% FDR) (binary (1 = stabilised)); higher = stabilised by the compound; details: system: HL-60 intact cells; concentration range 0.04-10 µM
Procedure: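 2D thermal proteome profiling in intact HL-60 cells treated with BRD-3811 (0, 0.04, 0.29, 2, 10 uM) for 90 min at 37 C, then heated 3 min at one of 12 temperatures (42-63.9 C). Soluble protein was quantified by TMT10 MS. The value is the DLPTP call of the paper: dose-dependent thermal stabilisation over all temperatures at 10% FDR (F-test of a dose-response against a flat model); one experiment, one call per tested protein.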

| Target | dose-dependent thermal stabilisation call |
| --- | --- |
| CLIC1 (UniProt O00299) | inactive: 0 |
| CNOT8 (UniProt Q9UFF9) | inactive: 0 |
| CENPL (UniProt Q8N0S6) | inactive: 0 |
| COPA (UniProt P53621) | inactive: 0 |
| CDC42BPA (UniProt Q5VT25) | inactive: 0 |
| CDC2 (UniProt P06493) | inactive: 0 |
| COX4I1 (UniProt P13073) | inactive: 0 |
| CDC27 (UniProt P30260) | inactive: 0 |
| CRTAP (UniProt O75718) | inactive: 0 |
| CEP120 (UniProt Q8N960) | inactive: 0 |
| CIZ1 (UniProt Q9ULV3) | inactive: 0 |
| CPSF1 (UniProt Q10570) | inactive: 0 |
| CPD (UniProt O75976) | inactive: 0 |
| COX6A1 (UniProt P12074) | inactive: 0 |
| CEP76 (UniProt Q8TAP6) | inactive: 0 |
| CGREF1 (UniProt Q99674) | inactive: 0 |
| CHD2 (UniProt O14647) | inactive: 0 |
| CD81 (UniProt P60033) | inactive: 0 |
| CEPT1 (UniProt Q9Y6K0) | inactive: 0 |
| COX15 (UniProt Q7KZN9) | inactive: 0 |

| Target | dose-dependent thermal stabilisation call |
| --- | --- |
| CHCHD2 (UniProt Q9Y6H1) | inactive: 0 |
| COL4A3BP (UniProt Q9Y5P4) | inactive: 0 |
| CDKN2AIPNL (UniProt Q96HQ2) | inactive: 0 |
| CMIP (UniProt Q8IY22) | inactive: 0 |
| CIAO1 (UniProt O76071) | inactive: 0 |
| CLPTM1 (UniProt O96005) | inactive: 0 |
| CREBBP (UniProt Q92793) | inactive: 0 |
| CDC2L5 (UniProt Q14004) | inactive: 0 |
| CDK5RAP3 (UniProt Q96JB5) | inactive: 0 |
| COMMD3 (UniProt Q9UBI1) | inactive: 0 |
| CLEC12A (UniProt Q5QGZ9) | inactive: 0 |
| CNOT7 (UniProt Q9UIV1) | inactive: 0 |
| CNDP2 (UniProt Q96KP4) | inactive: 0 |
| CNOT1 (UniProt A5YKK6) | inactive: 0 |
| COQ7 (UniProt Q99807) | inactive: 0 |
| COMMD9 (UniProt Q9P000) | inactive: 0 |
| CDAN1 (UniProt Q8IWY9) | inactive: 0 |
| CHERP (UniProt Q8IWX8) | inactive: 0 |
| COX7A2L (UniProt O14548) | inactive: 0 |
| COASY (UniProt Q13057) | inactive: 0 |

Two records drawn at random from those above:

| Target | dose-dependent thermal stabilisation call |
| --- | --- |
| CLEC12A (UniProt Q5QGZ9) | inactive: 0 |
| COASY (UniProt Q13057) | inactive: 0 |
